# Results reported in PMC12040169 (PLOS Biology, 2025).
# The other results are listed elsewhere or left out.
# Test system: T1, CTL2-GFP (C. trachomatis L2/434/Bu, GFP-expressing)
# T1 construct: L2/434/Bu, GFP-expressing
# Parameters: species or system HeLa; Intracellular C. trachomatis growth in HeLa cells, bulk GFP fluorescence relative to DMSO
# Settings: bulk GFP, single well; 28.5 h, 10 µM; inhibitor
row,SMILES,% of control remaining [%]
1,CCSc1nnc2c3c(sc2c1N)CC(C)(C)OC3 [CBK020374],166.508
2,CCCC/C=C/c1cccc(Nc2cccnc2)n1 [CBK037645],139.127
3,O=C(NCc1cccs1)C1(Cc2ccc(-c3ccc(F)c(F)c3)cc2)CCOCC1 [CBK285533],79.087
4,COc1ccccc1C(=O)Nc1sc2c(c1C#N)CC(C)(C)NC2(C)C [CBK307233],148.877
5,O=C(Nc1cccnc1)N1CCN(c2ccccc2)CC1 [CBK145043],126.739
6,CCc1cc(Br)ccc1S(=O)(=O)Nc1ccccc1O [CBK043877],86.7211
7,Cc1c(Cl)cccc1S(=O)(=O)Nc1nccnc1C(=O)O [CBK024795],146.471
8,O=C(Cc1ccccc1)Nc1nnc(C2=COCCO2)o1 [CBK287416],150.917
9,O=C1C2C3C=CC(C2C(=O)N1CCO)C1C2C(=O)N(CCO)C(=O)C2C31 (centres unmarked) [CBK263016],98.5979
10,Cc1[nH]c(=O)[nH]c(=O)c1Cc1cccc2ccccc12 [CBK111494],105.079
11,CCCOc1ccc(OC(=O)COc2ccccc2)cc1 [CBK160853],124.807
12,Cc1c(Br)c(C(F)(F)F)nn1CC(=O)NCCN1CCOCC1 [CBK018700],123.029
13,Cn1cc(C2CCCCCN2C(=O)c2cc(C3CC3)on2)cn1 (centres unmarked) [CBK285301],124.163
14,CCC(=O)Nc1sc2c(c1-c1nc3ccccc3s1)CCCC2 [CBK287324],168.878
15,COc1cc(C(c2c[nH]c3ccccc23)c2c[nH]c3ccccc23)c(Br)cc1OC(C)=O [CBK266051],121.085
16,Nc1ccc(S(=O)(=O)NC2(C(F)(F)F)NC(=O)N(c3ccccc3Cl)C2=O)cc1 (centres unmarked) [CBK268003],126.438
17,CC(C)N1CCN(c2nccnc2Cl)CC1 [CBK028901],115.651
18,CC(=O)c1ccc(-c2ccc(C(=O)NCC3COc4ccccc4O3)c(N(C)C(C)=O)n2)s1 (centres unmarked) [CBK076637],109.437
19,Nc1ccn([C@@H]2O[C@H](CO)[C@H](O)C2O)c(=S)n1 (some centres unmarked) [CBK201293],116.807
20,COc1cccc(NC(=O)CCS(=O)(=O)c2cccs2)c1 [CBK071069],89.9897
21,CCCN(C(=O)c1coc(COc2ccc3sc(C)nc3c2)n1)C1CC1 [CBK306878],131.94
22,CN(C)/C=N/c1ncc2ncn(C3CC(O)C(CO)O3)c2n1 (centres unmarked) [CBK201175],168.823
23,Cc1nn(-c2ccccn2)c(N)c1C1CC(=O)N(c2ccc(C(=O)O)cc2)C1=O (centres unmarked) [CBK291180],176.869
24,O=C(N/N=C\c1cccc(O)c1)C(=O)N/N=C/c1cccc(O)c1 [CBK261962],121.59
25,Cc1cc(OCC(=O)O/N=C(\N)Cc2ccc([N+](=O)[O-])cc2)ccc1Cl [CBK264322],105.627
26,COc1cc(/C=N/NC(=O)c2cccnc2)cc([N+](=O)[O-])c1O [CBK262233],100
27,COc1ccc(C(=O)N2CCC3(CCN(C(=O)/C=C/c4ccc5c(c4)OCO5)C3)C2)cc1OC (centres unmarked) [CBK131775],93.6382

row,SMILES,% of control remaining [%]
1,OCc1cc(CC2(NCc3cccc4c3OCO4)COC2)no1 [CBK289314],178.481
2,c1ccc(Oc2cccc(CN3CCC(N4CCN(c5ccccc5)CC4)CC3)c2)cc1 [CBK264662G],137.455
3,O=C1Nc2ccc(-c3cccc(C(F)(F)F)c3)cc2C(=O)N2C[C@H](O)C[C@@H]12 [CBK289273],114.754
4,Cc1nc2n(c1C)CCN(c1ccc3nnc(C(F)(F)F)n3n1)C2 [CBK305815],127.056
5,O=C(O)c1cccc(N2C(=O)c3cccc4c(C(=O)c5ccccc5)ccc(c34)C2=O)c1 [CBK299809],105.336
6,O=C(OCc1cc([N+](=O)[O-])cc2c1OCOC2)c1ccco1 [CBK297537],118.05
7,Cn1c2ccccc2c2ncn(CCCO)c(=O)c21 [CBK287951],130.41
8,COc1ccc(CCNC(=O)N2CCN(CCc3ccccc3)CC2)cc1OC [CBK158915],118.759
9,COc1ccc(CNC(=O)NC(=O)C2CCN(C(C)=O)CC2)c(OC)c1 [CBK034839],106.154
10,CC1CCCCN1C(=O)CN1C(=O)[C@H]2CCCN2C(=O)c2ccccc21 (some centres unmarked) [CBK286320],136.437
11,Cc1cc(=O)cc(C(=O)NC2CCN(c3ncccc3C#N)CC2)o1 [CBK307240],118.596
12,O=C(C1CC1)N1C2CCC1CC(O)(Cn1ccc3ccncc31)C2 (centres unmarked) [CBK284652],135.023
13,Cc1c(C(=O)Nc2ccc(C(=O)O)cc2)nnn1-c1ccc(Cl)cc1 [CBK300532],124.81
14,Cc1cc(C)n(CC2CCCN2CCc2ccccn2)n1 (centres unmarked) [CBK304846],69.5619
15,CNCCc1nc(-c2cccs2)c2ccccn12 [CBK035905],122.342
16,O=C(N[C@H]1C[C@H]2C(=O)NC[C@@H](CCC(=O)N3CCOCC3)N2C1)c1cccs1 [CBK289009],134.234
17,OC1(c2ccc(F)cc2)CCCC2CN(Cc3cccnc3)CC21 (centres unmarked) [CBK284377],103.966
18,Cc1cccc(C)c1NC(=O)Nc1ccc(F)cc1F [CBK300526],139.749
19,Cc1cc(NC(=O)CN(C)Cc2ccc(Br)cc2)on1 [CBK305599],140.925
20,CCc1cccc(C)c1NC(=O)CSc1nnc(-c2cccnc2)n1C [CBK267582],124.829
21,COc1ccccc1N1CCN(C(=O)NCCc2c[nH]cn2)CC1 [CBK155369],158.825
22,CCc1c(C)nc2ccccc2c1S(=O)(=O)CCC(=O)OC [CBK155468T],112.523
23,Cc1cc(C)c2c(c1)COC1(CCN(Cc3ccccc3)CC1)O2 [CBK061572],103.656
24,CCOc1cc(-c2cc(C(=O)O)c3ccccc3n2)ccc1O [CBK266848],101.544
25,O=C1NC2(CCN(C(=O)c3ccc(C(F)(F)F)c(F)c3)CC2)Oc2ccc(-c3ccccc3)cc21 [CBK115841],121.571
26,CCC1(CCc2ccccc2)CC(O)=CC(=O)O1 (centres unmarked) [CBK012790],102.864
27,COc1cccc(CC2(C#N)CC2)c1 [CBK003907],113.727

# Three entries picked at random from those above, as already listed:
row,SMILES,% of control remaining [%]
16,O=C(N[C@H]1C[C@H]2C(=O)NC[C@@H](CCC(=O)N3CCOCC3)N2C1)c1cccs1 [CBK289009],134.234
12,O=C(C1CC1)N1C2CCC1CC(O)(Cn1ccc3ccncc31)C2 (centres unmarked) [CBK284652],135.023
11,Cc1cc(=O)cc(C(=O)NC2CCN(c3ncccc3C#N)CC2)o1 [CBK307240],118.596

# (listing goes on)

row,SMILES,% of control remaining [%]
1,Cc1nn(CCC#N)c(C)c1[C@@H]1C=C[C@@H](NC(=O)Nc2ccc(Cl)cc2)C1 [CBK288803],72.238
2,CCc1nc(CC(=O)N2CCOC(c3ccc(F)cc3)C2)cs1 (centres unmarked) [CBK304083],112.353
3,O=C(Nc1sc2c(c1CN1CCCCCC1)CCCC2)c1ccccc1 [CBK261811],116.944
4,O=c1cc(N2CCN(c3ccccc3)CC2)[nH]c(=O)n1-c1ccccc1Cl [CBK287506],139.192
5,Cc1ccc2[nH]c3c(c2c1)CCN(C=O)C31CCN(Cc2ccc(OC(F)F)cc2)CC1 [CBK040438],130.837
6,Nc1ncnc2sc3c(c12)CCN(C(=O)c1ccc2nccnc2c1)C3 [CBK295588],142.568
7,Cn1c(C2CC(=O)N(c3ccc(Cl)cc3)C2)nc2ccccc21 (centres unmarked) [CBK287783],124.245
8,Cc1ccc(N2C(=O)N[C@@H]3CCN(C(=O)c4ccc(C(C)(C)C)cc4)[C@@H]3C2=O)cc1 [CBK289284],133.976
9,CN(C)CCCNC(=S)NC(=O)c1ccccc1 [CBK265317],102.025
10,COc1ccc(NC(=O)CCC(=O)O)c(OC)c1 [CBK265451],137.161
11,O=C(Cn1cc(Br)ccc1=O)NC1CCCN(Cc2ccccc2)C1 (centres unmarked) [CBK305668],108.009
12,COc1cccc2c3c([nH]c12)CCCC3 [CBK000331],124.238
13,CC(C)[C@@H](CO)n1c(=O)[nH]c2ncc(-c3ccc(N4CCOCC4)cc3)nc21 [CBK064770],163.069
14,COc1cccc(-c2noc(Cn3cnc4sccc4c3=O)n2)c1 [CBK297127],159.521
15,CC1CCN(S(=O)(=O)c2ccc(S(=O)(=O)Nc3ncnn3C)cc2)CC1 [CBK306470],91.429
16,CCOC(=O)CSc1nc(C)cc(Oc2ccc(=O)n(C)n2)n1 [CBK269476],101.149
17,Cc1cc(C)c2oc(-c3cccc(NC(=O)c4cccc(Cl)c4Cl)c3C)nc2c1 [CBK264005],100
18,NNc1nc(-c2ccc(Br)cc2)nc2ccccc12 [CBK262860],124.114
19,CC1CCn2c3c(c4cccc1c42)CCNCC3 (centres unmarked) [CBK018012C],53.2544
20,O=C(NC1CCCCC1)N[C@H]1[C@H](O)[C@@H](N2CCN(c3ccccc3)CC2)[C@@H]2OC[C@H]1O2 [CBK288822],131.044
21,COC1CCCC(C(=O)N2CCCC2c2nc3ccccc3[nH]2)C1 (centres unmarked) [CBK284007],102.523
22,O=C(CSCCO)Nc1cccc2ccccc12 [CBK265623],137.586
23,O=C(O)CCC(=O)Nc1ccccc1Sc1ccc(Cl)cc1 [CBK287015],114.103
24,COc1nc2nonc2nc1OC [CBK028544],114.347
25,c1cnn(C2CCN(Cc3ccc(Oc4cnccn4)cc3)CC2)c1 [CBK306417],138.425
26,O=C(O)c1cnc2ccc(F)cc2c1N1CCOCC1 [CBK287851],115.933
